For 63 compounds, cell number change and AC50 results are on record in PubChem BioAssay AID2685 (National Center for Advancing Translational Sciences (NCATS), 2010).

This assay is described as follows: qHTS Assay for Lipid Storage Modulators in Drosophila S3 Cells.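 As to cell number change: cells counted by Cell Tracker Red CMTPX staining in the red channel.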 As to conditions: BODIPY lipid droplet fluorescence, 18-24 h; for cell number change: measured here: cell count max response, cells fed with added oleic acid. In short, it runs like this: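 Drosophila S3 cells got compounds at several concentrations plus oleic acid (400 uM solution). Laser-scanning cytometry with 488 nm excitation read lipid droplets at 500-530 nm and cells at 575-640 nm. Percent activity was relative to 20 uM Triacsin C.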

Where [1] appears, read: measured here: cell number channel AC50, cells fed with added oleic acid.
The mark [2] stands for this setting: measured here: lipid fluorescence (Fed channel) AC50, cells fed with added oleic acid.

SMILES strings stand for the structures. Some of the results follow. Shown are side measurements of this screen, not its main read-out; they come without a call. Compounds called inactive in the main read-out are mostly missing here. Potencies come from curve fits of mixed quality, noted in brackets.

Turning to `CN(Cc1nnc(-c2ccc(F)cc2)o1)c1ccccc1`, the cell number change amounted to 16.7%.

Turning to `Cc1cc(C(=O)COC(=O)c2ccncc2)c(C)n1Cc1ccco1`, the cell number change was -12.5%.

On to `CCC(C)n1c(SCC(=O)NC(=O)Nc2ccc3c(c2)OCCO3)nc2ccccc2c1=O` (stereo unspecified), for which the AC50 runs as follows: under setting [1], 0.206 µM [rising, full curve]; under setting [2], 0.231 µM [rising, full curve].

Take `O=C(O)C1=NOC(CNC(=O)c2ccccc2Cl)C1` (stereo unspecified): the cell number change is -50.7%. Further, the AC50 under setting [1] is 29.1 µM [falling, single point].

In the case of `O=C(CN1CCN(S(=O)(=O)c2ccc(F)c(Cl)c2)CC1)N1CCc2ccccc21`, the cell number change is 34.4%. The AC50 under setting [1] is 29.1 µM [rising, single point]. Besides, under setting [2], the AC50 was 20.6 µM [rising, partial curve].

For the compound `COc1ccc2cc(Br)ccc2c1CC(=O)NC(C)(C)C`, the cell number change came to 34%.

Consider `COc1ccc(N2C(=O)N(Cc3ccc(C)cc3)c3ccccc3S2(=O)=O)cc1`, for which the cell number change was determined as 49.3%. Further, under setting [1], the AC50 is 29.1 µM [rising, single point]. Besides, the AC50 under setting [2] was 29.1 µM [rising, single point].

Consider `Cc1nc2ccc(S(=O)(=O)Nc3cc(-c4nc5cccnc5s4)ccc3C)cc2s1`, for which the cell number change was 1.69%. Further, the AC50 under setting [2] was 2.59 µM [rising, partial curve].

Regarding `CSc1ccc(S(=O)(=O)Nc2ccc3c(c2)NC(=O)CC3)cc1`, the cell number change was -15.8%. For the same compound, the AC50 under setting [2] is 23.1 µM [rising, partial curve].

With `CCCc1cc(=O)n2[nH]c(NCc3c(Cl)cccc3Cl)nc2n1`, the cell number change is 28.4%. For the same compound, the AC50 under setting [2] was 6.51 µM [rising, single point].

On to `COc1ccc(CC(=O)NNS(=O)(=O)c2ccc(F)cc2)cc1`, for which the cell number change was 4.76%. Under setting [2], the AC50 is 6.51 µM [rising, single point].

With `Cc1cc(C)cc(C(=O)NCC(=O)OCc2nc(N)nc(Nc3ccccc3C)n2)c1`, the cell number change turned out to be 0.777%.

On to `Cc1cc(C)n2nc(/C(C#N)=C/c3ccccc3)c(C#N)c2n1`, for which the cell number change was -17.9%. For the same compound, the half-maximal activity concentration (AC50) under setting [2] was 0.116 µM [rising, full curve, poor fit].

As to `CNc1snc(C)c1C(=O)OCC(=O)N(C)Cc1ccccc1`, the AC50 under setting [2] is 18.4 µM [falling, partial curve, poor fit].

Regarding `O=C(COC(=O)[C@@H]1CC(O)CN1S(=O)(=O)c1ccc(Cl)cc1)NC(=O)NCc1ccccc1` (stereo partly specified), the cell number change was determined as 6.34%. The AC50 under setting [2] was 29.1 µM [rising, single point].

For `COc1cc(/C=C/[N+](=O)[O-])ccc1OCc1cccc(C(=O)O)c1`, the cell number change is -5.7%. Also, under setting [2], the AC50 was 29.1 µM [falling, single point].

As for `COc1ccc(Nc2ncc3c(n2)CC(c2ccc(OC)cc2)CC3=O)cc1` (stereo unspecified), the cell number change stood at 139%. Further, under setting [1], the AC50 is 3.66 µM [rising, full curve]. Also, under setting [2], the AC50 is 2.59 µM [rising, full curve].

On to `N#C/C(=C(/O)CCl)c1nc2c(s1)CCc1ccccc1-2`, for which the cell number change came to 33.8%.

As to `Cn1c(N)c(C#N)c2c(c1=S)COC(C)(C)C2`, the cell number change was 12.9%. The AC50 under setting [2] was 4.61 µM [rising, single point].

Consider `CCC(C)(C(=O)Nc1ccc(OC)cc1)N(C)C(=O)Cn1nnnc1N` (stereo unspecified), for which the cell number change is -11.4%. Further, the concentration at half-maximal activity (AC50) under setting [2] was 6.51 µM [rising, partial curve].

Consider `CCOC(=O)CS(=O)(=O)c1nc(-c2ccc(F)cc2)cc(C(F)(F)F)n1`, for which the cell number change is -69.2%. The half-maximal activity concentration (AC50) under setting [1] is 5.17 µM [falling, partial curve, poor fit]. In addition, the half-maximal activity concentration (AC50) under setting [2] is 29.1 µM [falling, single point].

With `Cc1sc2nc(CSc3n[nH]c(N)n3)[nH]c(=O)c2c1C`, the cell number change was 13.4%.

Consider `COc1ccc(CN2CCN(C(=O)CCC(=O)Nc3nnc(C4CCCCC4)s3)CC2)cc1F`, for which the cell number change is -4.42%. For the same compound, under setting [2], the AC50 was 29.1 µM [falling, single point].

In the case of `O=C(Nc1nnc(C2CC2)s1)c1ccc(Cl)nc1`, the cell number change turned out to be 37.9%. Besides, the AC50 under setting [1] is 25.9 µM [rising, single point].

As for `CCOC(=O)c1ccc(NC(=O)CSC2=NN3CCCC(=O)N=C3S2)cc1`, the cell number change was found to be 33.1%. Further, the AC50 under setting [1] was 0.058 µM [rising, full curve, poor fit]. Moreover, the concentration at half-maximal activity (AC50) under setting [2] was 23.1 µM [rising, partial curve].

With `Cc1nn(Cc2ccccc2)c(Cl)c1C(=O)NCc1ccco1`, the cell number change stood at 24.8%. Under setting [1], the AC50 is 6.51 µM [rising, single point]. Moreover, the AC50 under setting [2] is 6.51 µM [rising, single point].

In the case of `COc1ccc(-c2nc(C#N)c(N3CCOCC3)o2)cc1OC`, the cell number change is -15.9%. Also, under setting [2], the AC50 was 6.51 µM [rising, single point].

For `C=CCCCCCCCCC(=O)NN`, the cell number change is -78%. Further, the AC50 under setting [1] is 20.6 µM [falling, partial curve]. The AC50 under setting [2] is 0.651 µM [falling, single point].

On to `COCCNc1nc(SC)nc2sc3c(c12)CCN(C)C3`, for which the cell number change is -26.1%.

With `O=C(Nc1cc(C(=O)Nc2ccccc2C(=O)O)cc(C(=O)Nc2ccccc2C(=O)O)c1)c1ccccc1`, the cell number change was 15.1%. For the same compound, under setting [2], the AC50 is 29.1 µM [rising, single point].

Consider `C/C(=N\O)c1sc(-c2ccccc2)nc1C`, for which the cell number change came out at 7.4%. Besides, the AC50 under setting [2] is 0.731 µM [rising, partial curve, poor fit].

With `CCNC(=O)c1c(NC(=O)c2cc(-c3cc(C)ccc3O)n[nH]2)sc2c1CCCC2`, the cell number change is 19.6%. For the same compound, the concentration at half-maximal activity (AC50) under setting [2] was 0.517 µM [rising, full curve, poor fit].

As to `Cc1ccc(CNC(=O)c2cccc(S(C)(=O)=O)c2)cc1`, the cell number change was -10.8%.

For `Cc1c(CC(=O)Nc2ccc(Cl)cc2)sc2ccc(Cl)cc12`, the cell number change is -27.6%. The AC50 under setting [2] is 29.1 µM [falling, single point].

On to `CCOc1ccc(C(=O)NCCC(=O)N2CCC3(CC2)NCCc2[nH]cnc23)cc1`, for which the AC50 under setting [1] is 0.259 µM [rising, full curve, poor fit].

Consider `CCOC(=O)c1ccc(Oc2nc(SC)nc(N(C)C)n2)cc1`, for which the cell number change stood at 1.56%. Besides, the AC50 under setting [2] is 20.6 µM [rising, single point].

Consider `Cc1ccc(CN2CCN(Cc3nc4ccccc4nc3C)CC2CCO)cc1` (stereo unspecified), for which the cell number change amounted to 28.1%. Further, under setting [2], the AC50 is 7.31 µM [rising, partial curve].

Consider `O=C(CS)Nc1ccc2ccccc2c1`, for which the cell number change was -33%. Further, the AC50 under setting [1] was 23.1 µM [falling, single point]. Besides, under setting [2], the AC50 is 3.66 µM [falling, full curve, poor fit].

As for `CCOC(=O)[C@H]1[C@H]2COc3ccccc3[C@@H]2N2C(=O)CNC(=O)[C@@]12C`, the cell number change was found to be 6.88%. For the same compound, under setting [1], the AC50 is 0.651 µM [falling, single point]. Under setting [2], the AC50 was 0.651 µM [falling, single point].

Regarding `C=CCN1C(=O)c2ccc(C(=O)N3CCN(S(=O)(=O)c4cccc(F)c4)CC3)cc2C1=O`, the cell number change is 27%.

For the compound `Cc1ccc(C(C(=O)NC2CCCCC2)N(Cc2cccnc2)C(=O)C2COc3ccccc3O2)o1` (stereo unspecified), the cell number change was -10.3%. For the same compound, the AC50 under setting [2] is 1.3 µM [rising, partial curve].

Regarding `CC(=O)c1sc(NC(=O)COc2ccc(C)c(C)c2)nc1C`, the cell number change worked out at 33.2%. In addition, the AC50 under setting [1] is 10.3 µM [rising, partial curve].

`Cc1[nH]nc2c1C(c1cccc(O)c1)C1=C(CC(C)(C)CC1=O)N2` (stereo unspecified): the cell number change is -1.76%. Under setting [2], the AC50 was 32.6 µM [rising, single point].

As for `CN(C(=O)Cn1nc(Cl)ccc1=O)C1CCCN(Cc2ccccc2F)C1` (stereo unspecified), the cell number change was -23%. Moreover, the AC50 under setting [2] is 1.84 µM [falling, partial curve, poor fit].

For the compound `O=C(/C=C/c1ccc(-c2cccc([N+](=O)[O-])c2)o1)N1CCOCC1`, the cell number change stood at 27.5%. Also, the concentration at half-maximal activity (AC50) under setting [1] was 6.51 µM [rising, single point]. Besides, under setting [2], the AC50 was 6.51 µM [rising, single point].

As for `CCOC(=O)Cn1c(=NC(=O)CSC(C)=O)sc2cc(F)ccc21`, under setting [2], the AC50 is 16.4 µM [rising, single point].

For the compound `Cc1ccc(NC(=O)c2cnn(-c3ccccc3)c2C)cc1`, the cell number change was -16.4%.

With `CCOc1ccc2c3c(c(=O)oc2c1OCC)CCCC3`, the cell number change is -16.9%.

`Cc1nc(-c2ccc(S(=O)(=O)N3CCN(C(c4ccccc4)c4ccccc4)CC3)s2)cs1`: the AC50 under setting [1] is 6.51 µM [rising, single point].

As to `COc1cc2sc(C)nc2cc1C`, the cell number change amounted to 22.4%. Moreover, the AC50 under setting [1] was 0.00461 µM [rising, full curve, poor fit].

As for `CCOCCCn1c(SCC(=O)Nc2ccccc2OC)nc2ccccc2c1=O`, the cell number change is -31.5%. Also, the AC50 under setting [1] was 16.4 µM [falling, single point]. Under setting [2], the concentration at half-maximal activity (AC50) is 6.51 µM [rising, single point].

Turning to `Cc1cc(C(=O)NNC(=O)c2ccccc2O)c(C)o1`, the cell number change worked out at 18.1%.

In the case of `COc1cccc2sc(=NC(=O)CCS(=O)(=O)c3ccc(C)cc3)n(C)c12`, the AC50 under setting [2] is 2.59 µM [rising, full curve, poor fit].

Turning to `O=C(O)c1cccc(Oc2ncnc3sc4c(c23)CCCC4)c1`, the cell number change was found to be 40.2%. The AC50 under setting [1] was 14.6 µM [rising, single point].

With `C#CCOCCOCCOCCNc1nc(N2CCN(C(=O)Cn3cc(CCCN=C(N)N)nn3)CC2)nc(N2CCN(C(=O)[C@H](CCCCN)n3cc(CC(C)O)nn3)CC2)n1` (stereo partly specified), the cell number change amounted to 28.8%.

For `CCN(CC)CCn1c(SCC(=O)Nc2ccc3c(c2)CCC3)nc2ccccc2c1=O`, the cell number change was -15.8%. The AC50 under setting [2] is 0.82 µM [falling, full curve, poor fit].

Regarding `O=C(/C=C/c1cccs1)NC(=S)Nc1ccccc1`, the cell number change was -8.27%.

As to `CCc1ccc2oc(C(=O)Nc3nonc3C)c(C)c2c1`, the cell number change is -5.28%.

In the case of `COc1ccnc(NCc2ccc(Cl)cc2)c1C#N`, the AC50 under setting [2] was 1.16 µM [rising, full curve, poor fit].

Turning to `COCC(=O)N(Cc1cc2ccc(C)cc2[nH]c1=O)c1ccccc1C`, the cell number change is -10.8%. Further, under setting [2], the AC50 is 1.3 µM [rising, full curve, poor fit].

Turning to `CC1SC2(NC1=O)C1CC3CC(C1)CC2C3` (stereo unspecified), the cell number change was 21%.

For `O=C(O)CN1C(=O)S/C(=C\c2cccnc2)C1=O`, the cell number change is -1.63%. The AC50 under setting [1] is 0.00517 µM [falling, full curve, poor fit].

In the case of `Cc1ncc([N+](=O)[O-])n1CCOC(=O)C12CC3CC(CC(C3)C1)C2`, the cell number change is -10.1%. Besides, the AC50 under setting [1] was 2.51 µM [falling, partial curve]. Under setting [2], the AC50 is 2.82 µM [falling, single point].
